Laboratory results: patent publication US7541430 (dated 2009)
Positions of bridges follow the written chain, without caps; N, C: chain ends. Non-standard residues stand in square brackets, D forms with d. *: point of attachment. Palmitoyl = CCCCCCCCCCCCCCCC(=O)*; Hyp = O=C(O)[C@@H]1C[C@@H](O)CN1; Nle = CCCC[C@H](N)C(=O)O

Assay: general procedure: Fmoc solid-phase peptide synthesis; Rink resin (Novabiochem), 0.51 mmol/g; Fmoc-Rink resin 0.47 mmol/g; HBTU
Settings: whole synthesis, hydrochloride

Palmitoyl-GSQHS[Nle]E[Hyp][dF]RWK-NH2 (lactam 7-12)
final HPLC purity (UV 214 and 254 nm, scale of the general procedure 0.25 mmol, approximately 0.40 mmol): 100% | isolated mass: 99.4 mg | isolated yield (scale of the general procedure 0.25 mmol, approximately 0.40 mmol): 14%
